# Experimental data published in the supplement of paper PMC7666118.
# Protein sequences, listed by entry. Tags and fused reporters are not part of them. Lines headed by an entry give the natural chain unless they say otherwise; changes in a name come on top.
# UniProt Q9NP66: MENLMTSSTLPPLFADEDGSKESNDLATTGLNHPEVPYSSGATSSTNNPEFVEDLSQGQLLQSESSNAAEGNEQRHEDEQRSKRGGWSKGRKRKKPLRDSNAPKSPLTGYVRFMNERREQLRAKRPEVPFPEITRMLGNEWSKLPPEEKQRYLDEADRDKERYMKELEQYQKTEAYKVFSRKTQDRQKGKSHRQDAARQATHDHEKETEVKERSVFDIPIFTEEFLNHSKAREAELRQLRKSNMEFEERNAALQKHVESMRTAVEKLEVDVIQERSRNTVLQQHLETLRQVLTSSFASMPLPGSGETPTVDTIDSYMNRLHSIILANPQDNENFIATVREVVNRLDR
# UniProt Q8WW33: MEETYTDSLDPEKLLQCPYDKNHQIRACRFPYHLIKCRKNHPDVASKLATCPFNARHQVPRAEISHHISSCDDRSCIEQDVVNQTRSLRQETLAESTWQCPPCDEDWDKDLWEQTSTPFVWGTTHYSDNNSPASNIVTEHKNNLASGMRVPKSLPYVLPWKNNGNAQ
# UniProt Q8N4P3, whole entry: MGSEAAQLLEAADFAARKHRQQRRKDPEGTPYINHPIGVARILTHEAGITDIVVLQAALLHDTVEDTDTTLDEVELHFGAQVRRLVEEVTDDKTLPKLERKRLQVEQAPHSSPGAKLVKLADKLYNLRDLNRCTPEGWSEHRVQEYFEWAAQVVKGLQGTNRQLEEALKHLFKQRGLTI
# UniProt Q86V85: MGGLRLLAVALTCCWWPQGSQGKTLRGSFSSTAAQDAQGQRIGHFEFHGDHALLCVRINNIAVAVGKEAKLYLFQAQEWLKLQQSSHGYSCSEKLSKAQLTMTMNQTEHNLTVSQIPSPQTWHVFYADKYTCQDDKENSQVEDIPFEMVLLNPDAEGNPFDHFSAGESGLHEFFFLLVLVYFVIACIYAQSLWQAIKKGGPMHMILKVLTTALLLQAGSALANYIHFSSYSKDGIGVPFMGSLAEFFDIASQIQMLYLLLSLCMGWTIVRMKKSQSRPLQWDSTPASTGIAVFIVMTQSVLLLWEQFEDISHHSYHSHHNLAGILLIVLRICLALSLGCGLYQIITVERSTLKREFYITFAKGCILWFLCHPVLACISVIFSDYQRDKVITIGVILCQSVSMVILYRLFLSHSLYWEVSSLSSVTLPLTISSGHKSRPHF
# UniProt P78417: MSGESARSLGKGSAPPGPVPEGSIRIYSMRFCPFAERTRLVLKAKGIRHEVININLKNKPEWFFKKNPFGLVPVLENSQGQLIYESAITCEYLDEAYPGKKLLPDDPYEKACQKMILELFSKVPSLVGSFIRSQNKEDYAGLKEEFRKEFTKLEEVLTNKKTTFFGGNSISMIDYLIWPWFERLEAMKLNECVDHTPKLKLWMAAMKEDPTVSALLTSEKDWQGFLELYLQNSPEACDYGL
# UniProt Q3T906: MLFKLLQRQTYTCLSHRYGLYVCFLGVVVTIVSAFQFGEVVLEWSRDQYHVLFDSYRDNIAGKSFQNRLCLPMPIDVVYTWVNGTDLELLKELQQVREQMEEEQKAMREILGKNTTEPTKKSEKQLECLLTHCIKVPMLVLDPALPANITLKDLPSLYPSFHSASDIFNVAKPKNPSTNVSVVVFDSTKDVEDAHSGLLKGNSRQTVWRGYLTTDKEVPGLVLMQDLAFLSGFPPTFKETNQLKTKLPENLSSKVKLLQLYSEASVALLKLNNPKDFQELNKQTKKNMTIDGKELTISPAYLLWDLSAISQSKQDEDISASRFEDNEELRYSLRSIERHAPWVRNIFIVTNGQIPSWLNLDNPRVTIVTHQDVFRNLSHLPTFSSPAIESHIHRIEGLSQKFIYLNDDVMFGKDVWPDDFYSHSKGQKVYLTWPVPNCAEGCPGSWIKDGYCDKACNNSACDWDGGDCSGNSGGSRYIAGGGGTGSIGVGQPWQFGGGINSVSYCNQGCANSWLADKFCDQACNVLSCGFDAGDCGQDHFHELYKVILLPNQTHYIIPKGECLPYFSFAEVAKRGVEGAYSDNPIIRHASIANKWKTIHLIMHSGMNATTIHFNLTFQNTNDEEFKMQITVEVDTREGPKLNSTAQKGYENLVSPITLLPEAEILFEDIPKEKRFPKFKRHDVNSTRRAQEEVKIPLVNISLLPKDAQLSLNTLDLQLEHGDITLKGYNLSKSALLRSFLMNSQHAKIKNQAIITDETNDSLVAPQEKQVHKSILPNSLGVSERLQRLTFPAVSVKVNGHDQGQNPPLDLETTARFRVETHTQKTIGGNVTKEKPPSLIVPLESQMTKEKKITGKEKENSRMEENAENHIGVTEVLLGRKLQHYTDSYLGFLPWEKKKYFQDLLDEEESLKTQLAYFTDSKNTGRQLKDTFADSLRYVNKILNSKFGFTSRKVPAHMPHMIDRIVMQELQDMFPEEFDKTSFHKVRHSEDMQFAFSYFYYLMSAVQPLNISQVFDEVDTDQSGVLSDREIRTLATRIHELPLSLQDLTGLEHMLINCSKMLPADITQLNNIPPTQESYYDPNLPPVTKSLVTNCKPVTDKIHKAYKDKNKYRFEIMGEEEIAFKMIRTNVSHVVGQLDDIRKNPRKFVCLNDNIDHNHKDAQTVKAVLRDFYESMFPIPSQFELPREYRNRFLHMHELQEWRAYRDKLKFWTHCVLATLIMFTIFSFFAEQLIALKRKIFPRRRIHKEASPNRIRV
# UniProt P04035: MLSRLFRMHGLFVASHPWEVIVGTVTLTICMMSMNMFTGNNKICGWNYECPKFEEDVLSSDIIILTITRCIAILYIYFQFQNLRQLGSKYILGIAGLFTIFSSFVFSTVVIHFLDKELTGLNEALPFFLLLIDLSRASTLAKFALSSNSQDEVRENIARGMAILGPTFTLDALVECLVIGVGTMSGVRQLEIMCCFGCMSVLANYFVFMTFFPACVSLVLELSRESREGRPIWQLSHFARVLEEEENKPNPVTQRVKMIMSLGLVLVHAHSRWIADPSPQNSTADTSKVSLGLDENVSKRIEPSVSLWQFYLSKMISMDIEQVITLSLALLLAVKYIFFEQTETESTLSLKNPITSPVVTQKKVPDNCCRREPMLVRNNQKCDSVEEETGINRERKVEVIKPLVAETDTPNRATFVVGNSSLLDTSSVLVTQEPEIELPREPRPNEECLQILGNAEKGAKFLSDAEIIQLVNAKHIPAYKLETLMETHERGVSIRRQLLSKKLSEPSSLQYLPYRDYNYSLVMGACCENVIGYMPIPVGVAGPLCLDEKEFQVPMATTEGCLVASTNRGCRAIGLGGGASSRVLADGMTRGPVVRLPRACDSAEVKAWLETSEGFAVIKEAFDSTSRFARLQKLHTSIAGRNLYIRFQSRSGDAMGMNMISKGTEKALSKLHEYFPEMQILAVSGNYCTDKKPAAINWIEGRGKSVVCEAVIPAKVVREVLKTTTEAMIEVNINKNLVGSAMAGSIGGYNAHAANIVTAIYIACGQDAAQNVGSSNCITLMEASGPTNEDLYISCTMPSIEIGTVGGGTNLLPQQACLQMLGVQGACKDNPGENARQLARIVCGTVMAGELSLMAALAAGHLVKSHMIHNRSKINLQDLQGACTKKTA
# UniProt B7ZAQ6: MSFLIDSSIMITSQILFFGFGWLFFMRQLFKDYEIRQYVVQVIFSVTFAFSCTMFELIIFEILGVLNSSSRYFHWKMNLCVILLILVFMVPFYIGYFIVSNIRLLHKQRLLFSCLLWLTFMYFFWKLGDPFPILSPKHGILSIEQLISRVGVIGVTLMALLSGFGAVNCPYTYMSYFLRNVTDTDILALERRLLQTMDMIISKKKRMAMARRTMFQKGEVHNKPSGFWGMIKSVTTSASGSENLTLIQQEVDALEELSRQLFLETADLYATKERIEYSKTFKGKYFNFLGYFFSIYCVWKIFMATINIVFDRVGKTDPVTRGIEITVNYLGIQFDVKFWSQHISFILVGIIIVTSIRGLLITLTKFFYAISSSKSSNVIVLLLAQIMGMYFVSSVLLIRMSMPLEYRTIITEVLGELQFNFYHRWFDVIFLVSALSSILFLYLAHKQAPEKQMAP
# UniProt Q00341: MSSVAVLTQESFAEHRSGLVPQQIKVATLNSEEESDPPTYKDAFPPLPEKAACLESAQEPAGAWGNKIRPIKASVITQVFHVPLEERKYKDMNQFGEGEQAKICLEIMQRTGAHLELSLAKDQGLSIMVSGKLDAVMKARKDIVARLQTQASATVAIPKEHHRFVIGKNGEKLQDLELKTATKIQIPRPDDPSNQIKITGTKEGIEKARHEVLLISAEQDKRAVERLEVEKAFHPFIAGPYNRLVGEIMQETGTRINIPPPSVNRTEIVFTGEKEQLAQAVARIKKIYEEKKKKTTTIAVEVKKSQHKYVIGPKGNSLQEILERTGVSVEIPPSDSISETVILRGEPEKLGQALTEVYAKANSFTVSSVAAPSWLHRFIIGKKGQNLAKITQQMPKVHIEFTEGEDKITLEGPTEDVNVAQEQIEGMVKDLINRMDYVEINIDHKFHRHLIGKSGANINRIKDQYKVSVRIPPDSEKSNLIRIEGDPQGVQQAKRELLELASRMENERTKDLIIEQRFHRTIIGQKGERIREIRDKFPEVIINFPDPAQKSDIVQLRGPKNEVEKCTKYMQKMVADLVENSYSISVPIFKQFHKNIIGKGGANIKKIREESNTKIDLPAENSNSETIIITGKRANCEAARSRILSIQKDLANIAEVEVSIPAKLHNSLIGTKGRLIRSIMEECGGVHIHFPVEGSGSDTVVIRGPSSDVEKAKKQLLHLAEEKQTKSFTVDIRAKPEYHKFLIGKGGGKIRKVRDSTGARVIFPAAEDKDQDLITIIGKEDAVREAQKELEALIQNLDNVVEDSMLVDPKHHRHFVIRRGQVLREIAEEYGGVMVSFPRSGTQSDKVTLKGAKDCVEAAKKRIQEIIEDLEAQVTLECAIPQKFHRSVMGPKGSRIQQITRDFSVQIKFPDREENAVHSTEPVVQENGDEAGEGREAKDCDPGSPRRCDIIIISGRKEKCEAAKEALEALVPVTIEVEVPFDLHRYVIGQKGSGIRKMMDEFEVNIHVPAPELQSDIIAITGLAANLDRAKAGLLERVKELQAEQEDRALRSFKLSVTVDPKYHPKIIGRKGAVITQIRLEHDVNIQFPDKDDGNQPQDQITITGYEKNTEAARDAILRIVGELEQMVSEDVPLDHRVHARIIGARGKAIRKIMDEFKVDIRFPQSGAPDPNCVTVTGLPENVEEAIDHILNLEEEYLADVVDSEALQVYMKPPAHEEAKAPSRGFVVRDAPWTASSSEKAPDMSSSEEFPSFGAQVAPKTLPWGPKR
# UniProt Q6IC98: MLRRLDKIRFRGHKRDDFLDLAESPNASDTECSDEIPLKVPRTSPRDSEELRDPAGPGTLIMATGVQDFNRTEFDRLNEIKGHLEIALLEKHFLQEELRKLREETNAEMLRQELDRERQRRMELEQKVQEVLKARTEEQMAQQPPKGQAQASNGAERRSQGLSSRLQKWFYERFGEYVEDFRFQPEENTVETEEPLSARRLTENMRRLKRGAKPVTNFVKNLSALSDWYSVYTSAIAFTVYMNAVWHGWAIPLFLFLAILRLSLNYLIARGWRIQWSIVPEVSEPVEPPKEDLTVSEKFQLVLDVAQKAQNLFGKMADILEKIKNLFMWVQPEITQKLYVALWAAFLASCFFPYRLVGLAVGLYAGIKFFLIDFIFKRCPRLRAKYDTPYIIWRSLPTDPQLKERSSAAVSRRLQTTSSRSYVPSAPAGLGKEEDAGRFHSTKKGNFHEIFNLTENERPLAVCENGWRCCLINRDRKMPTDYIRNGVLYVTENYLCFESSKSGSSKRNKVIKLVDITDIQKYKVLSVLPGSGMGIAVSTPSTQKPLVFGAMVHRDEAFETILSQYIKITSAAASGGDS
# UniProt P09429: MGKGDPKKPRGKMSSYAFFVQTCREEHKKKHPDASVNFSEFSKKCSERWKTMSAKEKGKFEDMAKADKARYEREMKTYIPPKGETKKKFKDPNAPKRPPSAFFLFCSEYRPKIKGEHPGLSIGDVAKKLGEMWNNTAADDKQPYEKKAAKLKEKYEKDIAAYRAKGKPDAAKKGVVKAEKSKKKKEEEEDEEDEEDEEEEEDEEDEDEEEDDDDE
# UniProt P32780: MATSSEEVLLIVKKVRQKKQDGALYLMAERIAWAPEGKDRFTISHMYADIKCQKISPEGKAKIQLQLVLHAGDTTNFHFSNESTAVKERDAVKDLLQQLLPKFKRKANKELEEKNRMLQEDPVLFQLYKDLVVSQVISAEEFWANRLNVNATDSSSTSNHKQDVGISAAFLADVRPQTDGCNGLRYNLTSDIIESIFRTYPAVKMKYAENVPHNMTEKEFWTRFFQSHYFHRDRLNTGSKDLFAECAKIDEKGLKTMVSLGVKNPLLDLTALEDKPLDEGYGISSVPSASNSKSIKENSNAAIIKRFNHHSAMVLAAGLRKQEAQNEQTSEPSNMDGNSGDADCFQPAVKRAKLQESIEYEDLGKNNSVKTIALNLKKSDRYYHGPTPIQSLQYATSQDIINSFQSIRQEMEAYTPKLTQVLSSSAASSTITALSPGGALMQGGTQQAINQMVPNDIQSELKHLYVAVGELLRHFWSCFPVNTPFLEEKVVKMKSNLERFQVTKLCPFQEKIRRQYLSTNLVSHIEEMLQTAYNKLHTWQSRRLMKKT
# Some of the results follow.
# Compound: COc1ccc(Cn2ccc3cc(C)c(C(=O)NO)cc32)cc1
# Assay: dose-dependent thermal stabilisation call (2D-TPP, DLPTP, 10% FDR) (binary (1 = stabilised)); higher = stabilised by the compound
# Conditions: system: HL-60 intact cells; concentration range 0.04-10 µM
# Procedure: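 2D thermal proteome profiling in intact HL-60 cells treated with BRD-3811 (0, 0.04, 0.29, 2, 10 uM) for 90 min at 37 C, then heated 3 min at one of 12 temperatures (42-63.9 C). Soluble protein was quantified by TMT10 MS. The value is the DLPTP call of the paper: dose-dependent thermal stabilisation over all temperatures at 10% FDR (F-test of a dose-response against a flat model); one experiment, one call per tested protein.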
row,Target,dose-dependent thermal stabilisation call
1,GPS1 (UniProt Q13098),inactive: 0
2,HMG20A (UniProt Q9NP66),inactive: 0
3,GTSF1 (UniProt Q8WW33),inactive: 0
4,HGS (UniProt O14964),inactive: 0
5,GPI (UniProt P06744),inactive: 0
6,HDDC3 (UniProt Q8N4P3),inactive: 0
7,GTPBP5 (UniProt Q9H4K7),inactive: 0
8,GPBP1L1 (UniProt Q9HC44),inactive: 0
9,GPR180 (UniProt Q86V85),inactive: 0
10,HLCS (UniProt P50747),inactive: 0
11,HLA-DRB1 (UniProt P01911),inactive: 0
12,GSTO1 (UniProt P78417),active: 1
13,GNPTAB (UniProt Q3T906),inactive: 0
14,HMGCR (UniProt P04035),inactive: 0
15,GPR89A (UniProt B7ZAQ6),inactive: 0
16,HIST3H2BB (UniProt Q8N257),inactive: 0
17,HDLBP (UniProt Q00341),inactive: 0
18,GRAMD4 (UniProt Q6IC98),inactive: 0
19,HMGB1 (UniProt P09429),inactive: 0
20,GTF2H1 (UniProt P32780),inactive: 0
21,GRN (UniProt P28799),inactive: 0
22,HPS3 (UniProt Q969F9),inactive: 0
23,HEATR2 (UniProt Q86Y56),inactive: 0
24,GNL3 (UniProt Q9BVP2),inactive: 0
25,GTPBP8 (UniProt Q8N3Z3),inactive: 0
26,HDAC10 (UniProt Q969S8),inactive: 0
27,HDAC6 (UniProt Q9UBN7),inactive: 0

# Nos. 1 to 2 from above:
row,Target,dose-dependent thermal stabilisation call
1,GPS1 (UniProt Q13098),inactive: 0
2,HMG20A (UniProt Q9NP66),inactive: 0
